Laboratory results from PMC10200693.
No constants are given. Whether binding was seen depends on the method and setting. Binding seen in cells or lysates may run through a third protein. Here binding means that the protein was enriched with, or labelled near, the bait; the list need not be complete.

By UniProt entry, the sequences of proteins in these tests, tags left out.
UniProt O75396: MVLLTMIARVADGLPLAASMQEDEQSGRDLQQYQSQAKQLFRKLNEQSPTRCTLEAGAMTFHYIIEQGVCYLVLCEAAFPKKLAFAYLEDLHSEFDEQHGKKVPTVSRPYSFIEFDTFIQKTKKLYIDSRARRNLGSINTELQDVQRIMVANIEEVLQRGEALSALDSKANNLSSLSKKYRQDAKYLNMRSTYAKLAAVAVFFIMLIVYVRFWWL
UniProt Q9Y6J0: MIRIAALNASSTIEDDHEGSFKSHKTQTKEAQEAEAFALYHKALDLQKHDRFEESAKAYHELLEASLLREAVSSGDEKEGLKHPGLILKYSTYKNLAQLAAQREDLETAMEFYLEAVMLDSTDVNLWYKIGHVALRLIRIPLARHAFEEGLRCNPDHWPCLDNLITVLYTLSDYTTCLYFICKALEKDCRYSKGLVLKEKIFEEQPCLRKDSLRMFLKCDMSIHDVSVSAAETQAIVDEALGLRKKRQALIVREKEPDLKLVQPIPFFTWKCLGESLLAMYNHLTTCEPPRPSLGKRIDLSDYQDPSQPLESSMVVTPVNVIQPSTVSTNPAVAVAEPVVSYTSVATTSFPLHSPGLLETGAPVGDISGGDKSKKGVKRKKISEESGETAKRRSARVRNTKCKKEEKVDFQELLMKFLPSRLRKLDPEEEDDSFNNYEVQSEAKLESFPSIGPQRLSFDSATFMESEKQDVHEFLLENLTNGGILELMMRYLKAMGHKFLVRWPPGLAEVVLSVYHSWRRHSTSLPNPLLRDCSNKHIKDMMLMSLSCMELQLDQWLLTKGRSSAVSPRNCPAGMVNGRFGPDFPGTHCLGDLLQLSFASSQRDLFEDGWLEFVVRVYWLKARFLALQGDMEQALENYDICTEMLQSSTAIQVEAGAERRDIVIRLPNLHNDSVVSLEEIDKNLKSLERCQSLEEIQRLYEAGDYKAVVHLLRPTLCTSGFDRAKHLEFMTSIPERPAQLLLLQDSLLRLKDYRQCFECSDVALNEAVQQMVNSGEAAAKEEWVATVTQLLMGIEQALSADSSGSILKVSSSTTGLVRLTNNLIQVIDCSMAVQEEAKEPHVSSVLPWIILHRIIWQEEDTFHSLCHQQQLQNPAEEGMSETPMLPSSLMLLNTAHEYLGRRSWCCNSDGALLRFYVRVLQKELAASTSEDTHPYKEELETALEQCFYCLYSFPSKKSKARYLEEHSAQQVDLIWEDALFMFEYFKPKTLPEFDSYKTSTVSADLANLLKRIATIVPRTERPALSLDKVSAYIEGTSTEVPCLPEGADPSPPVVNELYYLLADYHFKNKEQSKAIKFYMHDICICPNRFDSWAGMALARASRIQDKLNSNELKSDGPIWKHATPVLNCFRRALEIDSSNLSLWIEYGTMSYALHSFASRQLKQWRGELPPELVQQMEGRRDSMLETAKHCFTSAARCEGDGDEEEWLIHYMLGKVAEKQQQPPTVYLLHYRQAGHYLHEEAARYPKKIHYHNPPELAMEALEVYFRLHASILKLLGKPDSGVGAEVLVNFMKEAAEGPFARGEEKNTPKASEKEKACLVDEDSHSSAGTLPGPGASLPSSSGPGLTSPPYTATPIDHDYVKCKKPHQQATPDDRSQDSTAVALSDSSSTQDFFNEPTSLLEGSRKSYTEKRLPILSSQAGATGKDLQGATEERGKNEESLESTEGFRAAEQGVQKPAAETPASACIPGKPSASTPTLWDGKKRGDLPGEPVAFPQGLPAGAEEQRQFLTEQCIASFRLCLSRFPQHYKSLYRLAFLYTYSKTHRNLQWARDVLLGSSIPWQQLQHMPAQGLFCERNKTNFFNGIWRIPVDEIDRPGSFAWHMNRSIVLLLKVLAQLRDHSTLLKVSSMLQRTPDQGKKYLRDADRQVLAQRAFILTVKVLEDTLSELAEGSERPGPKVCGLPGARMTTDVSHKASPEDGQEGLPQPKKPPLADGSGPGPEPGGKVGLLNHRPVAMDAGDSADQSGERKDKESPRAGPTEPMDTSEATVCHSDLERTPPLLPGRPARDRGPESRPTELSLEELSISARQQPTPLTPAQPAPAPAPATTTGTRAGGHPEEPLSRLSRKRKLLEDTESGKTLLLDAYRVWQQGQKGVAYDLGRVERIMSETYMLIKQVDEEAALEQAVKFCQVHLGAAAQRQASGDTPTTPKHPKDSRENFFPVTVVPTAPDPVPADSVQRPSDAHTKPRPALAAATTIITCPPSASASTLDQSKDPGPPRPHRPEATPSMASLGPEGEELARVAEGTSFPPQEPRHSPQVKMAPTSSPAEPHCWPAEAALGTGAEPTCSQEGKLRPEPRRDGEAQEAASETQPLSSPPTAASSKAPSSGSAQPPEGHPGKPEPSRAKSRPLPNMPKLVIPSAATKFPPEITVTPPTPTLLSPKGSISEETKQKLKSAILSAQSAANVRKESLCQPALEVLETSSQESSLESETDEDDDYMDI
UniProt P35579: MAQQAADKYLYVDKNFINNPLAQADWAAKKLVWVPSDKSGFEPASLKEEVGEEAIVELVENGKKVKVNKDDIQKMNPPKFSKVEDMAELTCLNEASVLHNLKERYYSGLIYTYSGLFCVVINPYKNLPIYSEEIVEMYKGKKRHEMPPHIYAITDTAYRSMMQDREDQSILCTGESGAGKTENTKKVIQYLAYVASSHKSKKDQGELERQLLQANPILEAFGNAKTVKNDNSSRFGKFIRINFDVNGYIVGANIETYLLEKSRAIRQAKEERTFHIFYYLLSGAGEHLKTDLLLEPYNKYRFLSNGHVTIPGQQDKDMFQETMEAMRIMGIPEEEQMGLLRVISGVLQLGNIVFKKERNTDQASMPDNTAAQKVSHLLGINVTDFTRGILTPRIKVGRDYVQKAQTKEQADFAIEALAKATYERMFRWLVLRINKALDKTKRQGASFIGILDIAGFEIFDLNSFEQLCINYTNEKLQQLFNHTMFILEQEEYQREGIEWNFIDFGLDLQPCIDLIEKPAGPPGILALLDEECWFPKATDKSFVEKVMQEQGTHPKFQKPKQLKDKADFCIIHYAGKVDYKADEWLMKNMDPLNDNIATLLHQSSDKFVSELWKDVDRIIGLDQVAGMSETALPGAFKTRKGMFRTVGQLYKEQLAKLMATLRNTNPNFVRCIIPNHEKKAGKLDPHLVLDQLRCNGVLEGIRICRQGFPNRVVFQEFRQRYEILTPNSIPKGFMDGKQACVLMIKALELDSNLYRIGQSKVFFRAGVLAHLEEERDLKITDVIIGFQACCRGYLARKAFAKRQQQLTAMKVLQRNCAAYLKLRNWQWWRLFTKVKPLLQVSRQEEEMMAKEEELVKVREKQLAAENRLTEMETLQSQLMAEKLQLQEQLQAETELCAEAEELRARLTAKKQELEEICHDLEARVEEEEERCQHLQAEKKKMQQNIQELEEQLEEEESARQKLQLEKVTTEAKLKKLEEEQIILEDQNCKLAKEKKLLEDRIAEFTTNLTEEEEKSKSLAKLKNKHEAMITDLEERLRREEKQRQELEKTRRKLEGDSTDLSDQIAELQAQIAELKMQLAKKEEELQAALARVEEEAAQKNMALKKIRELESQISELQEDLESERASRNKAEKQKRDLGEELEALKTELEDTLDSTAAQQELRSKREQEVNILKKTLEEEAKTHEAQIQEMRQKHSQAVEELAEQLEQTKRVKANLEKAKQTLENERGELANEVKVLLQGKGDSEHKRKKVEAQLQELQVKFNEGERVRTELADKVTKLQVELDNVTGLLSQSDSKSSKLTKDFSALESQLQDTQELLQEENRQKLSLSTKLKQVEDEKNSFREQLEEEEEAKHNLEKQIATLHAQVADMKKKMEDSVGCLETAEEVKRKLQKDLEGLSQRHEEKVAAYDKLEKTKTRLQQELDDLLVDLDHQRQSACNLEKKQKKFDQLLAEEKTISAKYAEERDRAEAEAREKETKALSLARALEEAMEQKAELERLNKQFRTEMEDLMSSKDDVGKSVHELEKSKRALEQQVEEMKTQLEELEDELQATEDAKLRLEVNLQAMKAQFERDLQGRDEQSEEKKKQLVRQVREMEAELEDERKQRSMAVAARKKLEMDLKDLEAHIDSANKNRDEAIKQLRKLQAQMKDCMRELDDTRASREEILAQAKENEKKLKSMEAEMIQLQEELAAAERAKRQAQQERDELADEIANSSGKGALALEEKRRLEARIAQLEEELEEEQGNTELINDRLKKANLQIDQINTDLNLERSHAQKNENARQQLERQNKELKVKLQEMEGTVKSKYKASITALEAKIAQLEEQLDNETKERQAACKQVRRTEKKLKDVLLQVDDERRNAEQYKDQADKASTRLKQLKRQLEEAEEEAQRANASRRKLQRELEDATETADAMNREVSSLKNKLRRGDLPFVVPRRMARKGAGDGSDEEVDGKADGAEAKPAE

The substances below were run against increased sodium tolerance 1 (IST1) (human (endogenous in moDCs)) (UniProt P53990) (assay: affinity purification with mass spectrometry; endogenous IST1 immunoprecipitated from lysates of moDCs cultured overnight with or without 10% FBS (rabbit anti-IST1, protein A/G magnetic beads, 4°C; lysis buffer 200 mM NaCl, 75 mM Tris-HCl, 15 mM NaF, 7.5 mM EDTA, 7.5 mM EGTA, 0.15% Tween20); eluted with 0.2 M glycine pH 2-3; four donors; compared with beads only).
For Sec22b (from UniProt O75396 1-215), the binding was “binds”.
For “calcineurin-binding protein cabin-1 (from UniProt Q9Y6J0 1-2220)”, the binding was “binds”.
In the case of myosin-9 (from UniProt P35579 1-1960), the binding is reported as “binds”.
For tapasin (from UniProt O15533 21-448), the binding was “binds”.
